Taken from: PubChem BioAssay AID652243 (Drosophila RNAi Screening Center, 2013)
Screen: 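Fly genes required for human androgen receptor driven transcription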 (primary screen). Cell system: Drosophila S2R+ cells. Knock-down reagent: long dsRNA against Drosophila genes. Duration: 72 h (48 h, then 24 h hormone). Conditions: synthetic androgen R1881 at 10 nM for 24 h. Measurement: 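Per-well raw luminescence of the androgen-driven firefly reporter and of the Renilla control, two replicates each, without normalisation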. Reading the numbers: firefly reporter light: higher = more light from androgen-responsive reporter; Renilla control light: higher = more constitutive control signal (cell number, transfection). Call rule: 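Across duplicate plates, a knock-down whose log firefly/Renilla ratio shifted a set fold down or up from the GFP/LacZ control mean was a hit; the downward cut appears as both 1.5 and 3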. Calls: active = hit: reporter lowered or raised; inactive = no hit.
The deposit covers about 24,000 reagents; this is a random part of those that have a named target and a result. Of all reagents, 246 (1%) were called active. 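Plates not normalised; calls are printed but the firefly/Renilla ratio behind them is not deposited; fold cut for lowering reported inconsistently.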 The raw values are shown without normalisation. Reagents against one gene are numbered here. A plus sign joins genes that one reagent is predicted to hit. Reagent sequences are not shown. The record does not give: the amount of reagent.

Target gene | dsRNA no. | firefly reporter light, replicate 1 | firefly reporter light, replicate 2 | Renilla control light, replicate 1 | Renilla control light, replicate 2 | Call
Polr2F | 1 | 58742 | 73207 | 1.77e6 | 1.74e6 | inactive
Polr2F | 2 | 4.13e5 | 4.59e5 | 1.06e6 | 1.01e6 | inactive
stum | 1 | 2.57e5 | 2.04e5 | 1.61e6 | 1.72e6 | inactive
stum | 2 | 1.93e5 | 1.41e5 | 1.27e6 | 1.06e6 | inactive
Setx | 1 | 3.13e5 | 2.63e5 | 3.72e6 | 2.61e6 | inactive
CG31460 | 1 | 21349 | 30884 | 2.88e5 | 3.32e5 | inactive
Acp33A + CG15841 (retired record) | 1 | 2.50e5 | 3.15e5 | 1.71e6 | 1.84e6 | inactive
rha | 1 | 1.66e5 | 1.25e5 | 9.42e5 | 8.57e5 | inactive
CG11382 | 1 | 2.53e5 | 2.41e5 | 2.89e6 | 2.39e6 | inactive
P32 | 1 | 8.44e5 | 7.93e5 | 6.00e5 | 6.43e5 | inactive
Dap160 | 1 | 7.69e5 | 6.78e5 | 2.82e6 | 2.63e6 | inactive
Dap160 | 2 | 7.04e5 | 6.11e5 | 8.80e5 | 8.58e5 | inactive
ND-24 | 1 | 1.32e5 | 1.03e5 | 1.29e6 | 1.05e6 | inactive
CG31262 | 1 | 1.38e5 | 53301 | 1.55e5 | 1.42e5 | inactive
CG11041 | 1 | 1.20e5 | 1.19e5 | 1.29e6 | 1.22e6 | inactive
CG11041 | 2 | 5.19e5 | 7.93e5 | 1.54e6 | 1.43e6 | inactive
CG43376 | 1 | 2.91e5 | 2.88e5 | 2.08e6 | 1.83e6 | inactive
Acp63F | 1 | 1.57e5 | 1.67e5 | 1.27e6 | 1.84e6 | inactive
CG4645 | 1 | 1.20e5 | 1.38e5 | 6.11e5 | 7.25e5 | inactive
CG4645 | 2 | 6.51e5 | 1.12e6 | 3.87e5 | 6.55e5 | inactive
RpL34a | 1 | 1.25e5 | 1.29e5 | 1.88e6 | 2.07e6 | inactive
l(3)80Fj | 1 | 1.21e6 | 1.08e6 | 2.40e6 | 1.96e6 | inactive
Uxt | 1 | 1.50e5 | 1.40e5 | 2.18e6 | 2.52e6 | inactive
Hr39 | 1 | 8.22e5 | 5.48e5 | 1.81e6 | 2.12e6 | inactive
Hr39 | 2 | 3.36e5 | 3.76e5 | 7.42e5 | 3.72e5 | inactive
Gk2 | 1 | 8.65e5 | 8.97e5 | 1.71e6 | 1.37e6 | inactive
Gk2 | 2 | – | – | – | – | inactive
CG30479 | 1 | 1.05e5 | 51210 | 2.14e6 | 2.14e6 | inactive
CG30479 | 2 | 3.93e5 | 3.66e5 | 1.71e6 | 1.68e6 | inactive
Vps45 | 1 | 37159 | 62910 | 1.39e6 | 1.21e6 | inactive
Spp | 1 | 6.11e5 | 6.33e5 | 1.54e6 | 1.32e6 | inactive
Eip78C | 1 | 7.03e5 | 7.25e5 | 1.62e6 | 1.80e6 | inactive
SmydA-2 | 1 | 2.12e5 | 1.70e5 | 2.23e6 | 1.69e6 | inactive
Dis3l2 | 1 | 1.49e6 | 7.04e5 | 1.40e6 | 1.19e6 | inactive
PH4alphaNE1 | 1 | 89243 | 84133 | 6.77e5 | 4.82e5 | inactive
PH4alphaNE1 | 2 | 4.93e5 | 3.27e5 | 7.98e5 | 5.43e5 | inactive

3 neighbouring records from above:
Target gene | dsRNA no. | firefly reporter light, replicate 1 | firefly reporter light, replicate 2 | Renilla control light, replicate 1 | Renilla control light, replicate 2 | Call
Polr2F | 1 | 58742 | 73207 | 1.77e6 | 1.74e6 | inactive
Polr2F | 2 | 4.13e5 | 4.59e5 | 1.06e6 | 1.01e6 | inactive
stum | 1 | 2.57e5 | 2.04e5 | 1.61e6 | 1.72e6 | inactive

Continued:
Target gene | dsRNA no. | firefly reporter light, replicate 1 | firefly reporter light, replicate 2 | Renilla control light, replicate 1 | Renilla control light, replicate 2 | Call
CG15258 | 1 | 1.40e5 | 1.31e5 | 1.54e6 | 1.70e6 | inactive
Prp40 | 1 | 6.38e5 | 5.13e5 | 2.27e6 | 2.13e6 | inactive
140up | 1 | 1.25e5 | 50642 | 4.89e5 | 5.89e5 | inactive
140up | 2 | 6.16e5 | 6.65e5 | 1.35e6 | 1.36e6 | inactive
bru1 | 1 | 32180 | 44444 | 76078 | 99133 | inactive
bru1 | 2 | 9916 | 12308 | 48059 | 94449 | inactive
bru1 | 3 | 2.07e5 | 1.84e5 | 1.53e5 | 1.84e5 | inactive
bru1 | 4 | 2.61e5 | 1.59e5 | 2.29e5 | 1.76e5 | inactive
bru1 | 5 | 6.00e5 | 8.84e5 | 9.00e5 | 1.39e6 | inactive
WDR79 | 1 | 2.64e5 | 4.53e5 | 9.30e5 | 8.06e5 | inactive
CG14355 | 1 | 1.22e5 | 82902 | 5.09e5 | 6.64e5 | inactive
Pfk | 1 | 6.83e5 | 5.40e5 | 1.46e6 | 1.03e6 | inactive
Pfk | 2 | 3.23e5 | 2.58e5 | 5.95e5 | 6.86e5 | inactive
Pfk | 3 | – | – | – | – | inactive
ND-B17 | 1 | 1.44e5 | 1.58e5 | 1.94e6 | 1.96e6 | inactive
CG8026 | 1 | 5.01e5 | 6.27e5 | 1.80e6 | 1.82e6 | inactive
CG8026 | 2 | 3.24e5 | 3.14e5 | 1.89e6 | 1.84e6 | inactive
Gnf1 | 1 | 40544 | 53439 | 1.57e6 | 1.43e6 | inactive
Gnf1 | 2 | 1.71e5 | 2.05e5 | 6.04e5 | 6.45e5 | inactive
CG2930 | 1 | 1.24e5 | 1.02e5 | 8.88e5 | 6.20e5 | inactive
CG2930 | 2 | 3.60e5 | 3.65e5 | 7.79e5 | 7.19e5 | inactive
CG33229 | 1 | 80802 | 1.40e5 | 3.18e5 | 3.72e5 | inactive
CG33229 | 2 | 6.68e5 | 7.28e5 | 1.19e6 | 1.43e6 | inactive
CG14647 | 1 | 90604 | 99067 | 8.33e5 | 7.08e5 | inactive
CG14647 | 2 | 5.11e5 | 9.41e5 | 1.34e6 | 1.99e6 | inactive
Kdm4A | 1 | 1.52e6 | 7.26e5 | 1.85e6 | 8.09e5 | inactive
Kdm4A | 2 | 5.95e5 | 1.07e6 | 9.23e5 | 9.23e5 | inactive
CG12253 | 1 | 1.04e6 | 6.02e5 | 1.70e6 | 1.69e6 | inactive
CG12253 | 2 | 2.44e5 | 3.26e5 | 5.67e5 | 7.01e5 | inactive
Vha36-1 | 1 | 1.45e6 | 1.40e6 | 2.53e6 | 2.39e6 | inactive
Vha36-1 | 2 | 5.86e5 | 4.27e5 | 1.53e6 | 6.47e5 | inactive
CG11291 | 1 | 1.55e5 | 1.87e5 | 1.32e6 | 1.33e6 | inactive
mey | 1 | 62265 | 63868 | 6.11e5 | 4.64e5 | inactive
mey | 2 | 2.59e5 | 2.73e5 | 6.19e5 | 7.93e5 | inactive
Osi19 | 1 | 47541 | 63538 | 1.37e6 | 1.13e6 | inactive
HLH3B | 1 | 1.95e5 | 2.53e5 | 3.44e6 | 4.30e6 | active
HLH3B | 2 | 3.98e5 | 4.92e5 | 5.69e5 | 5.39e5 | inactive
CG4820 | 1 | 83367 | 1.67e5 | 1.31e6 | 2.28e6 | inactive
